Source: paper PMC9971906
Results are given in words; binding and its absence hold for the method and conditions named. Binding seen in cells or lysates may run through a third protein. Some results given as binding are weak or reduced against the parent protein; the word gives no strength.

By UniProt entry, the sequences of proteins in these tests, tags left out.
UniProt P54132: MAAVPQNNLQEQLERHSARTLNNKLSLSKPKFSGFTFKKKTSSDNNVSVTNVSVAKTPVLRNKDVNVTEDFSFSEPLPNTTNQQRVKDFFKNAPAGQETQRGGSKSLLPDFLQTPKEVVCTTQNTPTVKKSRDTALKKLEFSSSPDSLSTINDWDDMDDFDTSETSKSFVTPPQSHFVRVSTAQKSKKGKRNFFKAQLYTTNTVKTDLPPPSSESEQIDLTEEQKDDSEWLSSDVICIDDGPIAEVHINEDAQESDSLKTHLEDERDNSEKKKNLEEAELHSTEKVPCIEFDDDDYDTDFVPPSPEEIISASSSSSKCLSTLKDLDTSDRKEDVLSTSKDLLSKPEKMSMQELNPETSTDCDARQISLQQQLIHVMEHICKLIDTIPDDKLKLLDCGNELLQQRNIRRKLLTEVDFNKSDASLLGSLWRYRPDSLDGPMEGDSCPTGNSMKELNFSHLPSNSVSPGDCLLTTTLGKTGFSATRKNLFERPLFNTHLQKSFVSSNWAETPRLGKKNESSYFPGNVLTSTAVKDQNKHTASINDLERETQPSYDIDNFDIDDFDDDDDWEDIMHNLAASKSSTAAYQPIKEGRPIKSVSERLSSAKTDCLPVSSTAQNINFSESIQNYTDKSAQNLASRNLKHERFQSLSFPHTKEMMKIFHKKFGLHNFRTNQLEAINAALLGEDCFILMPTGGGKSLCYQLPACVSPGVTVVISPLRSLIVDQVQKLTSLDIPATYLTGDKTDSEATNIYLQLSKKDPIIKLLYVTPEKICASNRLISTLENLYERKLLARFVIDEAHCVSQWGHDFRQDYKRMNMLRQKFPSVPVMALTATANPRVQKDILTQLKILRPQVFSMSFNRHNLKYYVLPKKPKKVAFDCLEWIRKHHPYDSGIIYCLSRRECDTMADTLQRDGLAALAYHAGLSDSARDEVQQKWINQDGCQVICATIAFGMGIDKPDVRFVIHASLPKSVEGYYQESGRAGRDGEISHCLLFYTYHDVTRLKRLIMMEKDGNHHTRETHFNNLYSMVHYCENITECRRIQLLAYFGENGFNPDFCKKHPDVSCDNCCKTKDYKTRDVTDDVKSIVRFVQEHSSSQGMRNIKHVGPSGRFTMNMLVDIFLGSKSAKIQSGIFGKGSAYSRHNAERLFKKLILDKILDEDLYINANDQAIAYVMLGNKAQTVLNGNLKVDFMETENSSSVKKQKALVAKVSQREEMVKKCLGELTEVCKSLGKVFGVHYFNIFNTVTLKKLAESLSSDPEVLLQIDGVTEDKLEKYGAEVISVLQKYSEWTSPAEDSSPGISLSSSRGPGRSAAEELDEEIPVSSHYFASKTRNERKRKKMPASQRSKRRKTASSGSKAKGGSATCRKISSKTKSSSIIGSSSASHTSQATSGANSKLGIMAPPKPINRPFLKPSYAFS
UniProt O60934: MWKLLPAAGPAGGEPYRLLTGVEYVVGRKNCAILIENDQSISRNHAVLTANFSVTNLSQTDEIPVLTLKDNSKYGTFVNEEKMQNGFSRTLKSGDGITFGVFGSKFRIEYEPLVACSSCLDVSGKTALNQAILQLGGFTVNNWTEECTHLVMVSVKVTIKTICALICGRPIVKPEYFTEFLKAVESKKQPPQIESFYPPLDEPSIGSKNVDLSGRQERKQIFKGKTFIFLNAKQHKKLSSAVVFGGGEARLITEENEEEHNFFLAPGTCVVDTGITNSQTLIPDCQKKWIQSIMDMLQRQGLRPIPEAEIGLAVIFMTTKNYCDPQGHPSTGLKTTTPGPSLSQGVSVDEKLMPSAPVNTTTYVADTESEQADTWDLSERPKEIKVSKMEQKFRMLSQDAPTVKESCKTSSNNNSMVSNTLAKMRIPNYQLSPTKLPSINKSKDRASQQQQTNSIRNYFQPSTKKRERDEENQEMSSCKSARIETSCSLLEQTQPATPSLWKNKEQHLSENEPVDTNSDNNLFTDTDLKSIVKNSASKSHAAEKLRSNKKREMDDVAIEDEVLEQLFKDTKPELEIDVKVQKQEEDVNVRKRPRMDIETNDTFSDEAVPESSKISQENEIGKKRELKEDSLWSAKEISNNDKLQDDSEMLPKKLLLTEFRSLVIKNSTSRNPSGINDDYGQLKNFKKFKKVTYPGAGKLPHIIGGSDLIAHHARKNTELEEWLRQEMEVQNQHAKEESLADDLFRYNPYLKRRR
UniProt Q92878: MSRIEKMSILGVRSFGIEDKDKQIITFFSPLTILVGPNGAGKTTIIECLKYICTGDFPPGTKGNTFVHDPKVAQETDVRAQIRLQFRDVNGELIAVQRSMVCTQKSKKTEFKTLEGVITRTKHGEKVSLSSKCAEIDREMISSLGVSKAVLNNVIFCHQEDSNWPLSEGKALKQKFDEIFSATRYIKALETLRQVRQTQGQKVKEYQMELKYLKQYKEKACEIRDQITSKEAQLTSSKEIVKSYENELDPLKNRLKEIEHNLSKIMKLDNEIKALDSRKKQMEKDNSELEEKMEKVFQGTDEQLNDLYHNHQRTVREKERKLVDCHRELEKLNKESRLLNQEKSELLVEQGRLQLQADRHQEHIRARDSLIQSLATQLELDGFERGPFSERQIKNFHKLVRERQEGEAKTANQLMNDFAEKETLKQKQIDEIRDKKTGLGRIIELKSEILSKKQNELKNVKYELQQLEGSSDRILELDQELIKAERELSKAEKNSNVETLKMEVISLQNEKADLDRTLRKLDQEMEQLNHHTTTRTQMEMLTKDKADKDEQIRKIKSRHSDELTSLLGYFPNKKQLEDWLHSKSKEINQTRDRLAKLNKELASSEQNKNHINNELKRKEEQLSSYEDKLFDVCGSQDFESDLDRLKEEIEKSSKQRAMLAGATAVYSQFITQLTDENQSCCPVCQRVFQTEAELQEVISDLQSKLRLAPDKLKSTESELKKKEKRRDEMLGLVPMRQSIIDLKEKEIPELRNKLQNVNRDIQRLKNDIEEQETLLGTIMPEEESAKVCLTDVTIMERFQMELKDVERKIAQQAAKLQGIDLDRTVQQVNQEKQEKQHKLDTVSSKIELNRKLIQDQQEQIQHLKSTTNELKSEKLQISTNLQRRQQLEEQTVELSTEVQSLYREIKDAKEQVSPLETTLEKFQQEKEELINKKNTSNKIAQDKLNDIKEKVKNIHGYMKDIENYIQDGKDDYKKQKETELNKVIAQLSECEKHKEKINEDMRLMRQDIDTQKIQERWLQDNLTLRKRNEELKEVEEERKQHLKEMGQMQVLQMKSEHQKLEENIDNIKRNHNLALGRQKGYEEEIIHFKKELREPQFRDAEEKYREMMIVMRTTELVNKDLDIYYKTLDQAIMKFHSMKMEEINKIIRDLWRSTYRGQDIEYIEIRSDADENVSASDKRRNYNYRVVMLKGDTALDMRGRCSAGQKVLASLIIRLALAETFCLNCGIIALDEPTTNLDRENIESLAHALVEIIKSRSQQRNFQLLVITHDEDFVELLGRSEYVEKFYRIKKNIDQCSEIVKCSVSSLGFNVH

Biological target: bloom syndrome helicase (BLM) (human) (UniProt P54132)
Assay: pull-down; in vitro pulldown (Fig. S3A); bait, tags and conditions not told in the text shown

binding	Substance
binds	NBS1 (from UniProt O60934 1-754)
binds	RAD50 (from UniProt Q92878 1-1312)
